Experimental findings from paper doi:10.1101/2021.05.11.443667 are described below.

By UniProt entry, the sequences of proteins in these tests, tags left out. Residues count along the entry.
UniProt Q9D777, residues 96-241: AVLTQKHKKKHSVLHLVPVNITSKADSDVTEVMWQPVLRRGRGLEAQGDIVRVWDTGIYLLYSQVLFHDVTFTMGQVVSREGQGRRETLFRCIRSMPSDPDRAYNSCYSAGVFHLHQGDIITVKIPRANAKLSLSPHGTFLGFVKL

In assay [1] the target is T1, serum soluble CD138 (syndecan-1) of MRL/Lpr mice (mouse (endogenous in MRL/Lpr serum)) (UniProt P18828).
T1 sequence: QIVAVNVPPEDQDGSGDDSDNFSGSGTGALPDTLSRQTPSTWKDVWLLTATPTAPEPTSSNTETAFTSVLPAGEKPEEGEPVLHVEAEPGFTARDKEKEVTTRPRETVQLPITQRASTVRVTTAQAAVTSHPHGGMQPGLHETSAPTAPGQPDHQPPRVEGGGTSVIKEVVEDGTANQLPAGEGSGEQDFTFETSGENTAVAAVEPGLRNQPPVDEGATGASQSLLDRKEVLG
As to the kind of experiment: co-IP.

Assay [2] has as its target T1, serum soluble CD138 (syndecan-1) of MRL/Lpr mice (mouse (endogenous in MRL/Lpr serum)). As to the kind of experiment: co-IP. This is another data set of the same source.
The target of assay [3] is T2, recombinant mouse CD138 (syndecan-1) (mouse) (UniProt P18828).
T2 sequence: T1 sequence
The experiment in a line: pull-down.

Like-named read-outs stand apart in the source and are kept apart here. No constants are given. Whether binding was seen depends on the method and setting. For part of these data: Binding seen in cells or lysates may run through a third protein. Some binding calls cover weakened binding; strength is not graded here.

Consider “serum APRIL of MRL/Lpr mice (from UniProt Q9D777 96-241) (ligand)”, for which the binding result in assay [1] and in assay [2] was “binds” throughout.
In the case of “recombinant APRIL (a proliferation inducing ligand) (from UniProt Q9D777 96-241)”, in assay [3], the binding result is reported as “binds”.
